These are yes or no findings as the source states them, for the method shown. Binding seen in cells or lysates may run through a third protein. Some binding calls cover weakened binding; strength is not graded here. Each block holds one substance with its values, some of them ahead of it.
Experiments:
[1] = molecular target: paxillin (mouse (endogenous in mouse oocytes)) (UniProt Q8VI36); experiment: proximity ligation; Duolink In situ Red Starter Kit Mouse/Rabbit on fixed, permeabilised mouse oocytes; rabbit anti-SLK and mouse anti-paxillin antibodies overnight at 4°C; anti-rabbit plus and anti-mouse minus probes at 37°C
[2] = molecular target: paxillin (human (endogenous in HEK-293T)) (UniProt P49023); experiment: co-IP; HEK 293T cell lysates incubated with IgG/anti-SLK antibody or IgG/anti-paxillin antibody (500 μg protein, 2 μg antibody, 12 h at 4°C, protein G agarose); lysis buffer 50 mM Tris-HCl pH 7.5, 150 mM NaCl, 0.3% Nonidet P-40, 2 mM EDTA; eluates blotted with anti-SLK and anti-paxillin
[3] = molecular target: Ste20‐like kinase (SLK) (human (endogenous in HEK-293T)) (UniProt Q9H2G2); experiment: as above

Sequences of proteins named here, by UniProt entry; tags and fusion partners are left off.
UniProt Q8VI36: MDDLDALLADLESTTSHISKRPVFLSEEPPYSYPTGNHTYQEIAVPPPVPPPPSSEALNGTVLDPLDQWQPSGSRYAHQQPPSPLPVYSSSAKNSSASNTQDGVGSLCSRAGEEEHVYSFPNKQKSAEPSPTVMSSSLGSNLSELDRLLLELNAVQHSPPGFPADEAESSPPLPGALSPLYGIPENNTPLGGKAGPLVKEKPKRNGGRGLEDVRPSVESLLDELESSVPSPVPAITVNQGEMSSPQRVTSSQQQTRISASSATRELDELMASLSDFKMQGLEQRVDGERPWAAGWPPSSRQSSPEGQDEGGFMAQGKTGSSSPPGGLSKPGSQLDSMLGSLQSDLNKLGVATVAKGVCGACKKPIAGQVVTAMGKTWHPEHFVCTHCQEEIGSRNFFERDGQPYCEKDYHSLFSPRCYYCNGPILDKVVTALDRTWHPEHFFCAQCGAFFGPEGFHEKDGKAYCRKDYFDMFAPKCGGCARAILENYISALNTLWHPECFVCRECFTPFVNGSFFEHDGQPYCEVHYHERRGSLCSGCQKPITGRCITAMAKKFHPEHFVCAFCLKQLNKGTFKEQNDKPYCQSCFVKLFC
UniProt P49023: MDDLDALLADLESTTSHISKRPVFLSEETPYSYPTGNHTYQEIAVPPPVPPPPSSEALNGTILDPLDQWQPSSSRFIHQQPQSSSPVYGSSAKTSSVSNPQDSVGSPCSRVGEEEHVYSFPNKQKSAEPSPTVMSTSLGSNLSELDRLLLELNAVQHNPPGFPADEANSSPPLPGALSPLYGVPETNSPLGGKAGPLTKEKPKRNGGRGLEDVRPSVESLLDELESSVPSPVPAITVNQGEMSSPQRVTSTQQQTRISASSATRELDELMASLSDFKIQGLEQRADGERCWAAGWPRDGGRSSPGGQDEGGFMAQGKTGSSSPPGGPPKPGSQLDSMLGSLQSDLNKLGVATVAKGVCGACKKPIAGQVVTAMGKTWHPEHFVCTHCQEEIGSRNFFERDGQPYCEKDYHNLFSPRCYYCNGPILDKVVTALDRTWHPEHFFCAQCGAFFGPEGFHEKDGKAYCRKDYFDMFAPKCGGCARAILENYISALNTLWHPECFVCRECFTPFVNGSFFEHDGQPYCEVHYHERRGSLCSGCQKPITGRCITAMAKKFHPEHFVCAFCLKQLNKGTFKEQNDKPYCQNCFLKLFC
UniProt Q9H2G2: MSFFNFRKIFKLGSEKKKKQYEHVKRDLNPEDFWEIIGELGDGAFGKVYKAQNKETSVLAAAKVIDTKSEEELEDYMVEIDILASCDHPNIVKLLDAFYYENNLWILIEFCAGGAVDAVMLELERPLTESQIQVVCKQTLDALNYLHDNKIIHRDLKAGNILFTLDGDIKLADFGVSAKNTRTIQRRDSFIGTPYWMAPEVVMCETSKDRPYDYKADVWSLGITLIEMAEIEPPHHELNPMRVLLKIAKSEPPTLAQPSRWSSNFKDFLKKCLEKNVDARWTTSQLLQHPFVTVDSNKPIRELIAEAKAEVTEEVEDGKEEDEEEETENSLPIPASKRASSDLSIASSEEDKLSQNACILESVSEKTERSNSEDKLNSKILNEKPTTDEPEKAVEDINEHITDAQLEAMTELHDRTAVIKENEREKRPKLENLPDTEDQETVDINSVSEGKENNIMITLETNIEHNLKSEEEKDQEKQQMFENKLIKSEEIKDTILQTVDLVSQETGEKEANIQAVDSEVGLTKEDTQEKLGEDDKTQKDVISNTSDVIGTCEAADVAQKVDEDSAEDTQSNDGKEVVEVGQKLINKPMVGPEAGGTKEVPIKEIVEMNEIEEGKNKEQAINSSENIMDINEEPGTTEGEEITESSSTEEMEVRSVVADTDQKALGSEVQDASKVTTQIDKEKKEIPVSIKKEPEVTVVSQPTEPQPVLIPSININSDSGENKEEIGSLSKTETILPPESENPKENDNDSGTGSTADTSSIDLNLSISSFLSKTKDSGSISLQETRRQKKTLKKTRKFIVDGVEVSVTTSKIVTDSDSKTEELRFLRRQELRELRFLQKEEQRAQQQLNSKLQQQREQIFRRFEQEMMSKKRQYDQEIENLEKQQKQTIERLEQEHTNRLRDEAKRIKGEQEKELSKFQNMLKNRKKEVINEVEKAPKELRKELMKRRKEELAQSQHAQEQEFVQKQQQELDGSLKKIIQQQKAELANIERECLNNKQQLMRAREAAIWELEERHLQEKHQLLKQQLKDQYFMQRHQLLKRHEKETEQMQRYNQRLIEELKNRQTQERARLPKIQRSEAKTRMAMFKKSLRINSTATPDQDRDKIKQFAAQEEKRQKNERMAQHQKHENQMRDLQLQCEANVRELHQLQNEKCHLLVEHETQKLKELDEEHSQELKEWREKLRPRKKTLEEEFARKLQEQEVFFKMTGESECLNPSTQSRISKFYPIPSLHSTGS
UniProt O54988: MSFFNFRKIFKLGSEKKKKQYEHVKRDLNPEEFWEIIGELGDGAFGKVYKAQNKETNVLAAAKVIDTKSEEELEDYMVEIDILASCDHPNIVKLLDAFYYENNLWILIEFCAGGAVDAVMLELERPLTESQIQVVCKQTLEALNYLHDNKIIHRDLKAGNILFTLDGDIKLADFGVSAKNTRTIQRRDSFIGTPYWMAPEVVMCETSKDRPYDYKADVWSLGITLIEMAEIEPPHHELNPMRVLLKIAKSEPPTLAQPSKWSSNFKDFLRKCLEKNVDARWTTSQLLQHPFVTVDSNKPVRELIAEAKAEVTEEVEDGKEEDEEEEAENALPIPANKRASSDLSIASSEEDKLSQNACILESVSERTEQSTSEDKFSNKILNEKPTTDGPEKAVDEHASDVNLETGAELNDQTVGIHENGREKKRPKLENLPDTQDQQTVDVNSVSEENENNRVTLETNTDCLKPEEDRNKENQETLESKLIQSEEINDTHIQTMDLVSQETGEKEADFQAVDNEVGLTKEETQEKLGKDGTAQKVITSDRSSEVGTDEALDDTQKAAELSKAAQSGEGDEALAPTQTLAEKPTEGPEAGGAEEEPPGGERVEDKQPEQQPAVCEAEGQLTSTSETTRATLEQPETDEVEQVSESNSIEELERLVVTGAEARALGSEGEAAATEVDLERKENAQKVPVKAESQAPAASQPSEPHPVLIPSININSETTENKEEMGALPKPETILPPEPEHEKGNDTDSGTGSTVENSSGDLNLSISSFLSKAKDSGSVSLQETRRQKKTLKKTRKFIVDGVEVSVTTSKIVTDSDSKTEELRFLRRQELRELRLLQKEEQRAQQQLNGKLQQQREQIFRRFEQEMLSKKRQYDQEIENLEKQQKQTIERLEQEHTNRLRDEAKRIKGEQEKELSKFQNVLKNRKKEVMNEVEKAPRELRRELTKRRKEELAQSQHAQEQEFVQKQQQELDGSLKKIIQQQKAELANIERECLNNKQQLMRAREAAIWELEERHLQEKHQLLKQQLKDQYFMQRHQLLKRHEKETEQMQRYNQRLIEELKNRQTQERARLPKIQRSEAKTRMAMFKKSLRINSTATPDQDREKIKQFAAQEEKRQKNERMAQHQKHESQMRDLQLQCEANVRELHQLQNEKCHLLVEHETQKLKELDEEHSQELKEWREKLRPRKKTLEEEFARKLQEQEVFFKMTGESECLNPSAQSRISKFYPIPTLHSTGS

binding [1]: binds
Substance: Ste20‐like kinase (SLK) (from UniProt O54988 1-1233)

binding [2]: binds
Substance: Ste20‐like kinase (SLK) (from UniProt Q9H2G2 1-1235)

binding [3]: binds
Substance: paxillin (from UniProt P49023 1-591)

— paper PMC10068952
